Like-named read-outs stand apart in the source and are kept apart here.
Test system: SARS-CoV-2
Assay: microbe, parasite or virus in culture
Type: cell-based

In the case of `CC(C)OC(=O)C(C)(C)Oc1ccc(C(=O)c2ccc(Cl)cc2)cc1` [Fenofibrate], the IC50 (Severe acute respiratory syndrome coronavirus 2, Vero C1008, 72 h, read-out: IC50 (Mean +/- SD)) is reported as 19.8 µM, the IC50 (Severe acute respiratory syndrome coronavirus 2, Vero C1008, Vero E6, one representative experiment with two replicates, when combined, each drug at the same concentration, read-out: IC50 value of the particular graph) is reported as 20 µM and the “Inhibition of SARS-CoV-2-induced cytopathic effect, result in words” value (Vero E6) is reported as “inhibited the cytopathic effect exerted by SARS-CoV-2 on Vero E6 at 20 µM”.
With `CCS(=O)(=O)N1CC(CC#N)(n2cc(-c3ncnc4[nH]ccc34)cn2)C1` [Baricitinib] the “Inhibition of SARS-CoV-2-induced cytopathic effect, result in words” value (Vero E6) was “failed to protected Vero E6 cells from SARS-CoV-2 induced cytopathic effect”.
